Assay results published in US9247746B2, “Fungicidal substituted 1-{2-cyclyloxy-2-[2-halo-4-(4-halogen-phenoxy)-phenyl]-ethyl}-1H-[1,2,4]triazole compounds” (BASF SE, priority 2011, dated 2016).
Some entries share one result that the patent states for a list of compounds.

Key:
Puccinia recondita = assay: Preventative control of brown rust on wheat (Puccrt P1), green house; format: in vivo; conditions: 300 ppm, sprayed 1 day before inoculation, untreated plants 80% infected
Alternaria solani = assay: Preventative fungicidal control of early blight on tomatoes (Alteso P1), green house; format: in vivo; conditions: 300 ppm, tomato, sprayed 1 day before inoculation; untreated plants 90% infected
Leptosphaeria nodorum = assay: Microtest: activity against wheat leaf spots (Leptno); format: cell-based; conditions: 32 ppm, micro titer plate, 405 nm, 7 days after inoculation
Septoria tritici = assay: Microtest: activity against leaf blotch on wheat (Septtr); format: cell-based; conditions: 32 ppm, micro titer plate, 405 nm, 7 days after inoculation
Experimental: The active compounds were formulated separately as a stock solution having a concentration of 10000 ppm in dimethyl sulfoxide. M2. Activity Against Leaf Blotch on Wheat Caused by Septoria tritici(Septtr) The stock solutions were mixed according to the ratio, pipetted onto a micro titer plate (MTP) and diluted with water to the stated concentrations. A spore suspension of Septoria tritici in an aqueous biomalt or yeast-bactopeptone-glycerine solution was then added. The plates were placed in a water vapor-saturated chamber at a temperature of 18° C. Using an absorption photometer, the MTPs were measured at 405 nm 7 days after the inoculation.

SMILES: CC(Cn1cncn1)(OCc1ccccc1)c1ccc(Oc2ccc(Cl)cc2)cc1Cl (stereo not shown) [I-1, 1-[2-benzyloxy-2-[2-chloro-4-(4-chlorophenoxy)phenyl]propyl]-1,2,4-triazole]
- infection (% diseased leaf area) (Puccinia recondita): less than or equal to 10%
- infection (% diseased leaf area) (Alternaria solani): less than or equal to 10%
- growth (Leptosphaeria nodorum): ≤ 8%
- growth (Septoria tritici): ≤ 14%
